This is an account of results in US20200062856A1 (XDCEXPLORER SHANGHAI, published 2020).

Results are given in words; binding and its absence hold for the method and conditions named. Some binding calls cover weakened binding; strength is not graded here.

Test [1] deals with T1, cynomolgus TPBG protein, full-length, on the cell surface (cynomolgus) (UniProt Q4R8Y9).
T1 sequence (looked up): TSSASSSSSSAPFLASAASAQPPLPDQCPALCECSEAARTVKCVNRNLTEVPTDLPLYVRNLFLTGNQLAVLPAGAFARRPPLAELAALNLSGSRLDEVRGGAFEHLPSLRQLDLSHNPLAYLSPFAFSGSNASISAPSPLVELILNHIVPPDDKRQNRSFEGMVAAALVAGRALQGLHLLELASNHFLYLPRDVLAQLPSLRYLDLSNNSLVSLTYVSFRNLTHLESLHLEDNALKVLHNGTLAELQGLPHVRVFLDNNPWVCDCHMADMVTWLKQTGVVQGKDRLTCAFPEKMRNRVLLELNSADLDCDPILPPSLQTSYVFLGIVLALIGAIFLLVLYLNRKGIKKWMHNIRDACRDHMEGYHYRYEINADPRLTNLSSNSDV
In words: FACS on CHOK1-cTPBG cells (cynomolgus TPBG), fluorescent secondary antibody, mean fluorescence intensity.

The target in test [2] is T1, cynomolgus TPBG protein, full-length, on the cell surface (cynomolgus). Nature of the test: FACS on CHOk1-cTPBG cells.
For test [3] the target is unchanged. In words: FACS on CHOK1-cTPBG cells.

B1: Chimeric antibody 12B12 (antibody, V domains shown)
VH: DVQLVESGGGLVQPGGSRKLSCAASGFTFSNFGMHWVRQAPEKGLEWVAYISSGSTSFYYADTVKGRFTISRDNPKNTLFLQMTSLRSEDTAMYYCSRTNSLLRGFFDAWGAGTTVTVSS
VL: DIVLTQSPASLAVSLGQRATISCRASQSVSSSSYTYLHWYQQKPGQPPKLLIKSASNLESGVPARFSGTGSGTDFTLNIHPVEEEDTATYYCQHSWEIPLTFGAGTKLELK
notes: Mouse variable domains on human IgG1 heavy and human kappa light constant regions; also called c12B12; TPBG chimeric antibody 12B12
As for B1, the binding entry in test [1] is given as “binds”.

B2: mouse anti-TPBG monoclonal antibody 12B12C7C3 (antibody, V domains shown)
VH: DVQLVESGGGLVQPGGSRKLSCAASGFTFSNFGMHWVRQAPEKGLEWVAYISSGSTSFYYADTVKGRFTISRDNPKNTLFLQMTSLRSEDTAMYYCSRTNSLLRGFFDAWGAGTTVTVSS
VL: DIVLTQSPASLAVSLGQRATISCRASQSVSSSSYTYLHWYQQKPGQPPKLLIKSASNLESGVPARFSGTGSGTDFTLNIHPVEEEDTATYYCQHSWEIPLTFGAGTKLELK
notes: Mouse antibody purified from hybridoma supernatant; also called 12B12C7C3 (12B12 for short)
As to B2, the binding result in test [2] is on record as “binds”.

B3: Humanized antibody 12B12-12 (antibody, V domains shown)
VH: EVQLVESGGGLVQPGGSLRLSCAASGFTFSNFGMHWVRQAPGKGLEWVSYISSGSTSFYYADTVKGRFTISRDNAKNSLYLQMNSLRDEDTAVYYCARTNSLLRGFFDAWGQGTTVTVSS
VL: DIVLTQTPLSLSVTPGQPASISCRASQSVSSSSYTYLHWYLQKPGQPPQLLIKSASNLESGVPDRFSGSGSGTDFTLKISRVEAEDVGVYYCQHSWEIPLTFGQGTKLEIK
notes: also called h12B12-12
On to B3, for which the binding entry in test [1] and in test [3] was “binds” in each case.

B4: Humanized antibody 12B12-15 (antibody, V domains shown)
VH: EVQLVESGGGVVQPGRSLRLSCAASGFTFSNFGMHWVRQAPGKGLEWVAYISSGSTSFYYADTVKGRFTISRDNSKNTLYLQMNSLRAEDTAVYYCARTNSLLRGFFDAWGQGTTVTVSS
VL: DIVLTQTPLSLSVTPGQPASISCRASQSVSSSSYTYLHWYLQKPGQPPQLLIKSASNLESGVPDRFSGSGSGTDFTLKISRVEAEDVGVYYCQHSWEIPLTFGQGTKLEIK
notes: also called h12B12-15
Regarding B4, the binding result in test [1] and in test [3] was “binds” throughout.

B5: Chimeric antibody 28D4 (antibody, V domains shown)
VH: DVQLVESGGGLVRPGGSLKLSCAASGFTFSNYVMSWARQSPEKRLEWVAEISTGGSHTYYSDTVTGRFTISRDNAKKALYLEMSSLRSEDTAIYYCIMFYYGSSYSMDYWGQGTSVTVSS
VL: DIQMTQSTSSLSASLGDRITISCRASQDIRNYLNWYQQKPDGTVKLLIYHTSRLHSGVPSRFSGSGSGTDYSLTISNLEQEDIATYFCQQGDTLPLTFGAGTRLELK
notes: Mouse variable domains on human IgG1 heavy and human kappa light constant regions; also called c28D4; TPBG chimeric antibody 28D4
On to B5, for which, in test [1], the binding result was “binds”.

B6: mouse anti-TPBG monoclonal antibody 28D4E6A9 (antibody, V domains shown)
VH: DVQLVESGGGLVRPGGSLKLSCAASGFTFSNYVMSWARQSPEKRLEWVAEISTGGSHTYYSDTVTGRFTISRDNAKKALYLEMSSLRSEDTAIYYCIMFYYGSSYSMDYWGQGTSVTVSS
VL: DIQMTQSTSSLSASLGDRITISCRASQDIRNYLNWYQQKPDGTVKLLIYHTSRLHSGVPSRFSGSGSGTDYSLTISNLEQEDIATYFCQQGDTLPLTFGAGTRLELK
notes: Mouse antibody purified from hybridoma supernatant; also called 28D4E6A9 (28D4 for short)
Take B6: the binding result in test [2] is recorded as “binds”.

B7: Humanized antibody 28D4-3 (antibody, V domains shown)
VH: EVQLVESGGGLVKPGGSLRLSCAASGFTFSNYVMSWIRQAPGKGLEWVAEISTGGSHTYYSDTVTGRFTISRDNAKKSLYLQMNSLRAEDTAVYYCIMFYYGSSYSMDYWGQGTTVTVSS
VL: DIQMTQSPSSLSASVGDRVTITCRASQDIRNYLNWYQQKPGKAPKLLIYHTSRLHSGVPSRFSGSGSGTDFTFTISSLQPEDIATYYCQQGDTLPLTFGQGTRLEIK
notes: also called h28D4-3
With B7, the binding result in test [1] and in test [3] was “binds” throughout.

B8: Humanized antibody 28D4-4 (antibody, V domains shown)
VH: EVQLVESGGGLVKPGGSLRLSCAASGFTFSNYVMSWARQAPGKRLEWVAEISTGGSHTYYSDTVTGRFTISRDNAKKSLYLQMNSLRAEDTAVYYCIMFYYGSSYSMDYWGQGTTVTVSS
VL: DIQMTQSPSSLSASVGDRVTITCRASQDIRNYLNWYQQKPGKAPKLLIYHTSRLHSGVPSRFSGSGSGTDFTFTISSLQPEDIATYYCQQGDTLPLTFGQGTRLEIK
notes: also called h28D4-4
B8: the binding result in test [1] and in test [3] was “binds” throughout.

B9: Humanized antibody 28D4-7 (antibody, V domains shown)
VH: EVQLVESGGGLVKPGGSLRLSCAASGFTFSNYVMSWIRQAPGKGLEWVAEISTGGSHTYYSDTVTGRFTISRDNAKKSLYLQMNSLRAEDTAVYYCIMFYYGSSYSMDYWGQGTTVTVSS
VL: DIQMTQSPSSLSASVGDRVTITCRASQDIRNYLNWYQQKPGKAPKLLIYHTSRLHSGVPSRFSGSGSGTDYTFTISSLQPEDIATYYCQQGDTLPLTFGQGTRLEIK
notes: also called h28D4-7
As for B9, the binding entry in test [1] and in test [3] was “binds” throughout.
